For two substances, binding results are on record in article PMC8208582, “Crosstalk between H2A variant-specific modifications impacts vital cell functions” (PLoS Genetics, 2021).

Sequences of proteins named here, by UniProt entry; tags and fusion partners are left off. A change or cut given only in a name is not applied to a line headed by its entry.
UniProt Q9FJE8: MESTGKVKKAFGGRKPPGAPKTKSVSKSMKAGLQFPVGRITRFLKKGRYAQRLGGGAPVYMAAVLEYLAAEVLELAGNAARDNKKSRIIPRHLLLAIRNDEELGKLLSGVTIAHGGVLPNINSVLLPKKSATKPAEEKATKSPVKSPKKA
UniProt Q94F49: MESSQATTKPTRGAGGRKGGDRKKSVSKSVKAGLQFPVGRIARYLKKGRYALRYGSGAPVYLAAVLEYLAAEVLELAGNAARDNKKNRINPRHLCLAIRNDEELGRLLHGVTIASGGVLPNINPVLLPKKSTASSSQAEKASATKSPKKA

In experiment [1] the target is H2A.W.6 (endogenous, in mononucleosomes) (Arabidopsis (endogenous in leaves)) (UniProt Q9FJE8). The experiment in a line: co-IP; mononucleosomes from MNase digested nuclear extracts of WT Arabidopsis leaves; H2A.W.6 or H2A.W.7 specific antibodies on protein A magnetic beads, overnight 4°C, washes with 300, 500 and 150 mM NaCl; western blot. In general terms: Immunoblotting shows a protein as a band on a membrane.

Experiment [2] addresses H2A.W.7 (endogenous, in mononucleosomes) (Arabidopsis (endogenous in leaves)) (UniProt Q94F49). Described as above.

No constants are given. Whether binding was seen depends on the method and setting. Binding seen in cells or lysates may run through a third protein. Some binding calls cover weakened binding; strength is not graded here.

Turning to “H2A.W.7 (endogenous, in mononucleosomes) (from UniProt Q94F49 1-150)”, the binding result in experiment [1] was “binds”.

On to “H2A.W.6 (endogenous, in mononucleosomes) (from UniProt Q9FJE8 1-150)”, for which the binding result in experiment [2] is given as “binds”.
